Source: PubChem BioAssay AID504375 (National Center for Advancing Translational Sciences (NCATS), 2011)
Out of some 1,600 compounds screened, about 25 (2%) were called active. Not shown: some 7% with an inconclusive outcome. Calls come from the whole dose curve; as a rule, active = well fitted inhibition curve with a large enough effect; inconclusive = small, poorly fitted or top-dose-only effect, or effect the other way; inactive = no such curve, though single readings can be large or run the other way. The list shows a part of the results.

The chains behind the UniProt entries cited, without tags or fusion partners.
UniProt Q01196, whole entry, looked up: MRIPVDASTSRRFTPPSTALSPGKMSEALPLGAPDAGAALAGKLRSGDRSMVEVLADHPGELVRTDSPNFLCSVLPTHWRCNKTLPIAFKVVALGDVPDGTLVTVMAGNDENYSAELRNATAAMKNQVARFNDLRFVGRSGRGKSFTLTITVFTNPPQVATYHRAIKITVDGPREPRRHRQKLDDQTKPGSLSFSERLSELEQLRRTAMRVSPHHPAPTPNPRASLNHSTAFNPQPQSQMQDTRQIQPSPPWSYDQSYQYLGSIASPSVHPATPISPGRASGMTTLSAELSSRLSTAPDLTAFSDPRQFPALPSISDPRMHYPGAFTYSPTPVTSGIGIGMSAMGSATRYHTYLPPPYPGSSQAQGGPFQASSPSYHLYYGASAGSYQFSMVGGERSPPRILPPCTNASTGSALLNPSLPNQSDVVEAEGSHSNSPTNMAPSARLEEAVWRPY
UniProt Q13951, whole entry, looked up: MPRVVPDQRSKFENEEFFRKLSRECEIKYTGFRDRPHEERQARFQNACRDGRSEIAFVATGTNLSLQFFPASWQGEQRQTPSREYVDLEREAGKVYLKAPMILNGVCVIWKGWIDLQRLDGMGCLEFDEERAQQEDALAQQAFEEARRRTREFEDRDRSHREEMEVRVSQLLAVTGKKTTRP

Target: Runt-related transcription factor 1 (Homo sapiens) + Core-binding factor subunit beta (Homo sapiens) (UniProt Q01196+Q13951)
Test: qHTS Assay for Compounds Blocking the Interaction Between CBF-beta and RUNX1 for the Treatment of Acute Myeloid Leukemia: Hit Validation with Orthogonal Assay
Conditions: CBFbeta-RUNX1 binding orthogonal assay, biochemical; series mostly up to 41 µM; activity change, negative = inhibition: at the top concentration
Procedure, shortened: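 Compound was incubated for 30 min with biotin-RUNX1 plus His6-CBF-beta at 30 nM per protein. Binding was then detected by TR-FRET between terbium anti-His antibody and 5 nM streptavidin-XL665, read after 90 min, in the same buffer as the AlphaScreen primary assay.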
% is set by controls: 0 for no effect and ±100 for the full control effect.

Activity change, negative = inhibition, inactive:
CN(C)c1ccc(NC(=O)Nc2csc3ccccc23)cc1 -4.5%
O=C(c1cc(Cl)cc(Cl)c1)N1CCN(c2cc(C(F)(F)F)nc3ccccc23)CC1 -4.37%
O=C(COC(=O)c1cc(S(=O)(=O)N2CCOCC2)ccc1O)Nc1cc(S(=O)(=O)N2CCCC2)ccc1Cl -0.93%
C=CCNC(=S)Nc1c(C(=O)OC)[nH]c2cc(OC)ccc12 -5.57%
Cc1onc2c(=O)n(-c3ccccc3)nc(-c3ccccc3)c12 -0.22%
CCOC(=O)N1CCc2c(sc3nc[nH]c(=O)c23)C1 -10.5%
O=C(Oc1cc(=O)oc2c1c(=O)n1c3c(cccc23)CC1)c1ccccc1 -23.9%
CC1(C)C([N+](=O)[O-])C(c2ccc(F)cc2)NC(c2ccc(F)cc2)C1[N+](=O)[O-] (stereo not drawn) 0.0612%
COc1ccc(/C=N/NC(=O)c2cnccn2)c(OC)c1OC 16.7%
Cc1cc(C)c(NC(N)=S)c(C)c1 -2.94%
Cc1[nH]ncc1-c1ccccc1Cl -3.61%
O=S(=O)(Nc1nc(SCc2ccc(Cl)cc2)n[nH]1)c1ccc(F)cc1 -7.77%
O=C(Cc1ccccc1)Nc1c(Cl)ccc2nsnc12 43.7%
CCC(C)NC(=S)Nc1ccccc1 (stereo not drawn) -4.94%
Cc1ccc(-c2cc(-c3c(C)nn(C)c(=O)c3N)[nH]n2)cc1 30.9%
COc1ccc2[nH]c(=O)c(CN(C(=O)C3CCCO3)c3ccc(C)c(C)c3)cc2c1 (stereo not drawn) 15.5%
COc1cc(C2C(C#N)=C(N)OC3=C2C(=O)CC(C)(C)C3)ccc1OCCN1CCOCC1 (stereo not drawn) -3.76%
O=S(=O)(c1cccc(F)c1)N1CCc2sccc2C1c1ccc(OC(F)(F)F)cc1 (stereo not drawn) -1.76%
O=C(O)c1ccccc1N/N=C/C1=C(N2CCOCC2)C(=C\c2ccccc2)/CC1 -13.9%
CN(C)c1ccc(C2CC(=O)C=C(Nc3ccccc3N)C2)cc1 (stereo not drawn) 9.93%
CCOC(=O)c1cnc2c(C(=O)OCC)cnn2c1N -0.967%
Cc1cc(C(=O)NNS(=O)(=O)c2cccc(Cl)c2)nn1C(C)(C)C -4.73%
Nc1cc(Nc2ccc(Br)cc2)nc(N)n1 3.46%
O=[N+]([O-])c1sccc1CS(=O)(=O)c1ccccc1 71.5%
CC(C)(C)C1CCC(OC(=O)CN2CCCCC2)CC1 (stereo not drawn) -7.93%
Cc1ccnc(SCCn2c(N3CCN(C)CC3)nc3c2c(=O)n(C)c(=O)n3C)n1 0.893%
O=C(N/N=C/c1ccncc1)c1cnccn1 27.7%
COc1ccc(C(=O)CN2C(=O)c3ccccc3C2=O)cc1 24%
CCCc1cc(NCc2ccccn2)n2nc(C)c(-c3ccccc3)c2n1 -5.29%
COC(=O)c1[nH]c2ccccc2c1NC(=O)c1c(F)cccc1F 0.0979%
CCCc1nc2sc3ccccc3c(=O)c2c(=O)n1Cc1ccc(OC)cc1 2.61%
Cc1c(-c2ccc(Cl)cc2)[n+](=O)c2c(n1[O-])CCCC2 25.6%
Nc1nccc(/C=C/c2c(Cl)cccc2Cl)n1 0.0245%
O=C(O)c1nccnc1C(=O)Nc1ccc(Oc2c(Cl)cccc2Cl)nc1 14%
Nc1cc(N)nc(CS)n1 11.3%
Cc1cc(=O)[nH]c2c1c(C)nn2C(C)(C)C -9.76%
CC(=O)/C(N=Nc1ccc(-n2ccc(C(F)(F)F)n2)cc1)=C(\C)O 14.8%
CCCCC1C2C(=O)N(c3ccccc3)C(=O)C2ON1c1ccccc1 (stereo not drawn) -6.53%
CN1C(=CC=C2C=C(I)C(=O)C(I)=C2)C(C)(C)c2ccccc21 57.4%
O=C(/C=C/c1ccccc1)c1c[nH]c2ccccc12 -2.63%
Brc1ccc2oc(-c3ccn[nH]3)cc2c1 6.92%
Cc1ccc(S(=O)(=O)NNC(=S)NC(C)(C)C)cc1 -2.83%
Cc1ccnn1CC(=O)N/N=C/c1ccc([N+](=O)[O-])s1 -18.3%
CN(C)CCCNc1cc(C(C)(C)C)nc2c(-c3ccc(Cl)cc3)cnn12 -1.05%
S=c1[nH]nc(-c2cccs2)n1C1CCCCC1 -14.4%
COc1ccccc1/C=C/C=N/NC(=O)CCn1cnc2ccccc21 17%
NC(=O)N/N=C/CCc1ccccc1 -10.9%
COc1ccc(/C(C)=N/NC(=O)CNC(=O)Cc2ccccc2)c(OC)c1 -5.21%
CN(C(=O)Nc1ccccc1)n1cnc2ccccc2c1=O 10.4%
CCOC(=O)N1CCc2c(sc(NC(=O)CN(CC)CC)c2C#N)C1 -1.05%
CN1C(=O)N(c2nnc(C(C)(C)C)s2)C(=O)C1c1ccccc1 (stereo not drawn) 1.93%
COc1c(/C=N/NC(=O)c2ccncc2)c(CCN(C)C(C)=O)cc2c1OCO2 -7.29%
Cn1ncc2c(c(SCc3ccc(Cl)cc3Cl)nn2C)c1=O 16.1%
O=[N+]([O-])c1ccccc1CSc1ccccn1 21.1%
Cn1c(=O)c2cc3ccccc3nc2n(C)c1=O 10%
COc1ccc(CCN(C)CCC(=O)Nc2cccc(C)c2)cc1OC -2.75%
CN(C)CCc1c[nH]c2ccc(CC3COC(=O)N3)cc12 (stereo not drawn) 13.7%
CCNC(=S)N1N=C2c3ccccc3CCC2C1c1ccc(F)cc1 (stereo not drawn) 6.61%
CCNC(=S)NNc1ccccc1 0.232%
CN(c1cnn(-c2ccccc2)c(=O)c1Cl)n1cccc1 -10.8%
Cc1ccc(C(CCNC(C)c2cccs2)c2ccco2)cc1 (stereo not drawn) 3.18%
Cc1ccc(-n2[nH]c(C)c(/C=N/c3cccc(C)n3)c2=O)cc1 7.07%
O=[N+]([O-])c1ccc(C2CC(c3ccccc3)=Nc3ccccc3S2)cc1 (stereo not drawn) 25.5%
O=C(O)/C(=C\c1ccccc1)c1ccccc1 14%
CCCSc1cc(Cl)nc(N)n1 -0.0734%
CC(C)(C)OC(=O)N1CCC[C@H]1c1nnc(SCc2ccccc2)o1 6.12%
Cc1ccc(CN(C(=O)c2cc(=O)c3cc(C)cc(C)c3o2)C2CCS(=O)(=O)C2)cc1 (stereo not drawn) 1.6%
CC(C)(C)OC(=O)N1CCCN(C(=O)Nc2cccc(Cl)c2)CC1 -9.47%
CCOC(=O)N1CCC(NS(=O)(=O)c2ccccc2)CC1 -10%
COc1ccc(CN(Cc2cccn2C)S(=O)(=O)c2ccc(F)cc2)cc1 -6.48%
O=C(O)C1CCc2sc3[nH]c(=S)n(-c4ccccc4)c(=O)c3c21 (stereo not drawn) 12.3%
CC1CCc2c(sc(NC(=O)Cn3nc(C(=O)O)c4ccccc4c3=O)c2C#N)C1 (stereo not drawn) -3.21%
CCCCNC(=O)Nc1ccccc1CC 6.62%
CCN(CC)CCN1C(=O)C(=O)/C(=C(/O)c2ccc3c(c2)CC(C)O3)C1c1ccc(OC)cc1 (stereo not drawn) 8.96%
O=C(CN1C(=O)c2ccccc2S1(=O)=O)c1ccc2c(c1)OCCCO2 0.306%
CCOC(=O)C1=C(C)NC(C)=C(C(=O)OCC)C1 -3.83%
Cc1cc([N+](=O)[O-])nn1CC(=O)N/N=C/c1ccccc1O 8.38%
O=C(CC1NCCNC1=O)NC1Cc2ccccc2C1 (stereo not drawn) 17.6%
COc1ccc2[nH]c(-c3ccccc3)cc2c1 7.05%
CCOC(=O)NC1c2ccccc2Oc2ccccc21 11.8%
O=C(O)/C=C/C(=O)Nc1ccc(-n2ccc(C(F)(F)F)n2)cc1 6.45%
COc1cc2c(cc1OC)C1(C)N(CC2)C(C(C)=O)=NN1c1ccc(Cl)cc1 (stereo not drawn) 0.746%
CCOc1ccc(/C=C2\NC(=S)NC2=O)cc1 27.6%
Cc1ccc(C2=NOC(=O)/C2=C\c2ccc(C)o2)cc1 -4.73%
O=C(CCl)NCCCN(C(=O)C(Cl)Cl)c1ccc([N+](=O)[O-])cc1 20.2%
Cn1c(C(=O)c2ccncc2)cc2ccccc21 41.3%
CCOC(=O)/C(C#N)=C/Nc1ccsc1C(C)=O 34.3%
CCCCNc1nc2sc3c(c2c(=O)n1-c1cccc(Cl)c1)CCN(C)C3 -5.84%
CCCCc1cc(=O)oc2c(C)c(OCc3nn[nH]n3)ccc12 11.9%
CC(/C=N/n1c(COc2ccccc2)n[nH]c1=S)=C\c1ccco1 7.3%
COc1cc(/C=N/n2nnnc2N)cc(OC)c1OC 6.57%
O=C(O)c1ccccc1Sc1ccccc1S(=O)(=O)NC1CCCCC1 -9.91%
COc1ccc(S(=O)(=O)N2CCc3ccccc32)cc1C(=O)Nc1cccnc1 1.08%
COc1ccc(/C=C/C(=O)Oc2cc(O)cc(O)c2)cc1 3.35%
N#CC1CC(c2ccccc2)Nc2cc(Cl)ccc2N1 (stereo not drawn) -11.5%
CN(C)c1cc(-c2ccc([N+](=O)[O-])cc2)oc(=O)c1Cl 7.12%
COc1ccc(/C=N/NC(=O)c2ccc3nc[nH]c3c2)cc1OC 17.8%
CCCCc1c(C)nc2cc(-c3ccco3)[nH]n2c1=O 5.57%
CC(C)Cn1c(=O)c2c(nc3n2CCS3)n(C)c1=O -3.25%
COc1ccccc1C(=O)Nc1ccc2c(c1)nc(CCNC(=O)c1ccccc1)n2C -12.3%
Cc1c(C(=O)/C=C/N(C)C)nnn1-c1ccc(Cl)cc1Cl -1.77%
CN(C)C(=O)CSc1nnc(NC(=O)CCc2ccccc2)s1 -2.85%
Nc1ccc(Oc2ccccc2F)nc1 4.8%
Oc1ccc(-c2nc3ccccc3s2)c(O)c1 -2.67%
Cc1ccsc1/C=N/N1CCN(c2ccccn2)CC1 3.55%
COc1ccc(C(=O)NC(=S)Nc2ccc(CN3CCOCC3)cc2)cc1 -9.35%
COc1cccc(/C=N/Nc2nc3ccccc3[nH]2)c1O 13.1%
CCN1C/C(=C/c2cccs2)c2nc3ccccc3c(C(=O)O)c2C1 30.8%
Clc1cccc(Cl)c1Cn1nnc(N2CCCC2)n1 4.5%
O=C(CN1C(=O)c2ccccc2S1(=O)=O)c1ccc2c(c1)OCCO2 -8.88%
COc1ccc(NC(=O)Nc2nc3ccccc3s2)cc1 -7.1%
NNC(=O)c1ccc(Cn2cccn2)o1 1.02%
Cc1ccccc1Nc1nc(N)nc(CCl)n1 1.69%
O=C(O)C1(c2ccccc2)CCN(S(=O)(=O)c2ccc(Cl)s2)CC1 -15.3%
Cc1ccc(/C=C/c2nc3ccccc3c(=O)[nH]2)cc1 -1.31%
CCOc1ccc(N2C(=O)CC(NNc3nc4ccccc4s3)C2=O)cc1 (stereo not drawn) -0.856%
COC(=O)c1cccc(NC(=O)C(C)(C)C)c1 2.41%
COc1cccc(CC(=O)NNC(=O)c2c(-c3ccccc3)noc2C)c1 -4.42%

Pulled by compound from the list above, four records:
Activity change, negative = inhibition, inactive:
CN(C)c1ccc(NC(=O)Nc2csc3ccccc23)cc1 -4.5%
COc1ccccc1C(=O)Nc1ccc2c(c1)nc(CCNC(=O)c1ccccc1)n2C -12.3%
O=C(COC(=O)c1cc(S(=O)(=O)N2CCOCC2)ccc1O)Nc1cc(S(=O)(=O)N2CCCC2)ccc1Cl -0.93%
CN(C)C(=O)CSc1nnc(NC(=O)CCc2ccccc2)s1 -2.85%

Some of these compounds in order of length of the SMILES, smallest number first.
Activity change, negative = inhibition, inactive:
CCCCNC(=O)Nc1ccccc1CC 6.62%
COc1cc(/C=N/n2nnnc2N)cc(OC)c1OC 6.57%
CN(c1cnn(-c2ccccc2)c(=O)c1Cl)n1cccc1 -10.8%
